This is one part of the list.

Amino acid sequences for entries named in this document (tags omitted). A change or cut given only in a name is not applied to a line headed by its entry.
UniProt P0DMU8: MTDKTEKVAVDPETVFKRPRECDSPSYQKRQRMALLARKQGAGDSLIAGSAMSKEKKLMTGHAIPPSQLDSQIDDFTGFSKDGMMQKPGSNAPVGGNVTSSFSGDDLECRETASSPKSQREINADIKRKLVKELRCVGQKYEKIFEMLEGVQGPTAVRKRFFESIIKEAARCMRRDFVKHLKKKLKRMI
UniProt P0DMU9: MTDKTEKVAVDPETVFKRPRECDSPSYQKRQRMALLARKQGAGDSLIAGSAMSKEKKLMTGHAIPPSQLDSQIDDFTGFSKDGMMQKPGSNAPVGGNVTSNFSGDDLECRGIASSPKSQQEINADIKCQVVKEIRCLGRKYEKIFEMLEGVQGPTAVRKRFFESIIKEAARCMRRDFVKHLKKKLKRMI
UniProt P50461: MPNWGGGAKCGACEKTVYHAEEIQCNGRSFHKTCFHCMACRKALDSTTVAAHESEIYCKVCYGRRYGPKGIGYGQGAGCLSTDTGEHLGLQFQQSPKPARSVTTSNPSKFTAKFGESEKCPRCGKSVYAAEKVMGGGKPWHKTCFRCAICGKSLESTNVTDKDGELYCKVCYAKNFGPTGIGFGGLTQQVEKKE
UniProt Q9Y6A2: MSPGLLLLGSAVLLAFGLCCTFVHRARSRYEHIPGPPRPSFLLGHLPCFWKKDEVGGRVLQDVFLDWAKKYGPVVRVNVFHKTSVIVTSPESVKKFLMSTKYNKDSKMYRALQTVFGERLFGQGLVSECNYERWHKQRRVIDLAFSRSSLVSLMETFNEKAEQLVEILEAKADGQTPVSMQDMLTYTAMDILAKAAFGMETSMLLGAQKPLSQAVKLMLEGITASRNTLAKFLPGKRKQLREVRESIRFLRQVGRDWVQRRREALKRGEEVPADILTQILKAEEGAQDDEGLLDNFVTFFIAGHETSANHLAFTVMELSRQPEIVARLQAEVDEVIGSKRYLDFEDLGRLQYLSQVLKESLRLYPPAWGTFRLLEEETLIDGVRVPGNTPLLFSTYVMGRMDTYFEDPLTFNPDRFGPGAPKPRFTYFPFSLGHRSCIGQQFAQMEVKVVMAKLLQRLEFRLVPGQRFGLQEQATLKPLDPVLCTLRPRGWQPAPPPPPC
UniProt Q8TB03: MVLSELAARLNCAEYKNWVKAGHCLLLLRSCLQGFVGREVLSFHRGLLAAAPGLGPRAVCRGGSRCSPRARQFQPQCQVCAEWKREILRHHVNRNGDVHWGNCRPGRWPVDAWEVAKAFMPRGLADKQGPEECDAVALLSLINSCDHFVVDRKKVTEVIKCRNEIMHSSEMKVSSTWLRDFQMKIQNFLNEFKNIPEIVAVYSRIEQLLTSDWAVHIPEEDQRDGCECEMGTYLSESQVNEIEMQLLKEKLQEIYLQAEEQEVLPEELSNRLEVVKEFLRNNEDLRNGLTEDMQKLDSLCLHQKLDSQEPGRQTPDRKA
UniProt O95476: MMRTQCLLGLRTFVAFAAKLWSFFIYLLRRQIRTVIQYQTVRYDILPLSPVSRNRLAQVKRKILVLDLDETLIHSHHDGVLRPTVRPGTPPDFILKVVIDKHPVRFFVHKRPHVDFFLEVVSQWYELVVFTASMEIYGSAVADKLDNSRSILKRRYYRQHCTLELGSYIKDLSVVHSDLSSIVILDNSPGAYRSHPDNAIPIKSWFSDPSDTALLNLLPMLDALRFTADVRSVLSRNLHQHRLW
UniProt Q9NTM9: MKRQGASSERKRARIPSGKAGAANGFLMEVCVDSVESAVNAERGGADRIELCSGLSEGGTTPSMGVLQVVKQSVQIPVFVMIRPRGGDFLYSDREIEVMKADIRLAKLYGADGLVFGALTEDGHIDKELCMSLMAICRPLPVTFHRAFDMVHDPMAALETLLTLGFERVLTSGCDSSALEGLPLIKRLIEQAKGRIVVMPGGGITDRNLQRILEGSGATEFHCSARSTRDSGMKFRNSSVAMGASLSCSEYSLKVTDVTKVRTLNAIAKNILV
UniProt P21291: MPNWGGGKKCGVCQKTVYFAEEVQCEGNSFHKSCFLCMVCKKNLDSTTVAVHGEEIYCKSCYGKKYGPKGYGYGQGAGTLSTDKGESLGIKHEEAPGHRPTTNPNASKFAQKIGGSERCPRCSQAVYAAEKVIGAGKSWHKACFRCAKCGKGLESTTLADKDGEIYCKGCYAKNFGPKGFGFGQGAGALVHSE
UniProt Q9Y4B6: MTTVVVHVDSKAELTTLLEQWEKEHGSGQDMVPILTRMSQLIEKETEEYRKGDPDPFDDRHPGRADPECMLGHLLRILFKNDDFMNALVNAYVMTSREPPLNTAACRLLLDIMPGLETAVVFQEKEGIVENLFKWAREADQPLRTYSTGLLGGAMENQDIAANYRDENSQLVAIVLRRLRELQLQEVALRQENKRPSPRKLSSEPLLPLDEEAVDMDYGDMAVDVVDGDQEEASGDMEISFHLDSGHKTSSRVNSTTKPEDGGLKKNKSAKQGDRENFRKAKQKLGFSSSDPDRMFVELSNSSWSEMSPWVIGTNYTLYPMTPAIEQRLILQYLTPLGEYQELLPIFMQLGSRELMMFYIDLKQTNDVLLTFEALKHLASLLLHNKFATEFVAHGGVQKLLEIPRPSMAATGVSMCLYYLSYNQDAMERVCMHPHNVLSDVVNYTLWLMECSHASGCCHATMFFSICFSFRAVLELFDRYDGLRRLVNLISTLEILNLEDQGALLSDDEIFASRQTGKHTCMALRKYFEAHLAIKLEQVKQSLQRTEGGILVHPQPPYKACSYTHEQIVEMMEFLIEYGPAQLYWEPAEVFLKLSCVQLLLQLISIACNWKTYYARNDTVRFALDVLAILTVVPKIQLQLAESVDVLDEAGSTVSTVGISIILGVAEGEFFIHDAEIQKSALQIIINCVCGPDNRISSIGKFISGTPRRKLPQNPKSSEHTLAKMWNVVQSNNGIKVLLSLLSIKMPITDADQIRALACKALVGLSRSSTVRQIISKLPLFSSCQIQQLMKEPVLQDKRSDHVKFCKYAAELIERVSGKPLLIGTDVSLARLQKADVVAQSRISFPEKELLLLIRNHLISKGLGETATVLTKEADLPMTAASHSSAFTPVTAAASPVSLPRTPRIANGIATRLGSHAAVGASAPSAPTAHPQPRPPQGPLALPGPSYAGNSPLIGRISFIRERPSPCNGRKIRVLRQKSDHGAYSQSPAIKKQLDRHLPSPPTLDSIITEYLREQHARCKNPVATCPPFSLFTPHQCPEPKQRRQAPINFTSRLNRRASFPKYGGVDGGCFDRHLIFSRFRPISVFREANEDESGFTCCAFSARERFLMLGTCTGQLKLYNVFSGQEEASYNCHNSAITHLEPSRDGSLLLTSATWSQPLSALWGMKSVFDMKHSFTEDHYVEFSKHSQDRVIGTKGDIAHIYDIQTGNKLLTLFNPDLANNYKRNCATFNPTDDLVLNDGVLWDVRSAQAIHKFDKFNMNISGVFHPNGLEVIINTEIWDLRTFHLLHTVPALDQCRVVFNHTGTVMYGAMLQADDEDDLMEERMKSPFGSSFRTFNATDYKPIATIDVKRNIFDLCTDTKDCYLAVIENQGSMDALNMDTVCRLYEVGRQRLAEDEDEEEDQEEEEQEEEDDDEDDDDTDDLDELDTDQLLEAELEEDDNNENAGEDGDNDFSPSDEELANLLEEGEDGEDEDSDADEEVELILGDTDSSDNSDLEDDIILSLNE
UniProt Q9UER7, whole entry, looked up: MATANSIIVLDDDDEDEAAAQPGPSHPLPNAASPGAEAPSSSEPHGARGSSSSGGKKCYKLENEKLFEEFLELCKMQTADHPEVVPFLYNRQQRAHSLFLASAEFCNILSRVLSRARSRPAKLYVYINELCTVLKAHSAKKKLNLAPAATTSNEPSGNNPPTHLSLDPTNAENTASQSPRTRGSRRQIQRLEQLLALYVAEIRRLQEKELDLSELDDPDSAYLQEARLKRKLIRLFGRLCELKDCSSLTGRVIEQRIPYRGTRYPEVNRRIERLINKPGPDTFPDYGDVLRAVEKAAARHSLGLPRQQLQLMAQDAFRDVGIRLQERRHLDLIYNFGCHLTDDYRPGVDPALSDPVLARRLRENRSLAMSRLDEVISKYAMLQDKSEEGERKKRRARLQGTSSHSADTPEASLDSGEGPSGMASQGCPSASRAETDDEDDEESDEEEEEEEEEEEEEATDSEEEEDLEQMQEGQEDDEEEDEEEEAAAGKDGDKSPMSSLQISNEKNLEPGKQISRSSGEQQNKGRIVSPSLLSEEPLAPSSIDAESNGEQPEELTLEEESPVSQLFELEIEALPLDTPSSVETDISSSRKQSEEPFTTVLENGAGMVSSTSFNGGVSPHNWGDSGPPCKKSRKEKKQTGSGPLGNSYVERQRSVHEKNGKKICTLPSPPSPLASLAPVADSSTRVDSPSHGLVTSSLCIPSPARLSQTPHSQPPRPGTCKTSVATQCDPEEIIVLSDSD
UniProt Q9NXE8: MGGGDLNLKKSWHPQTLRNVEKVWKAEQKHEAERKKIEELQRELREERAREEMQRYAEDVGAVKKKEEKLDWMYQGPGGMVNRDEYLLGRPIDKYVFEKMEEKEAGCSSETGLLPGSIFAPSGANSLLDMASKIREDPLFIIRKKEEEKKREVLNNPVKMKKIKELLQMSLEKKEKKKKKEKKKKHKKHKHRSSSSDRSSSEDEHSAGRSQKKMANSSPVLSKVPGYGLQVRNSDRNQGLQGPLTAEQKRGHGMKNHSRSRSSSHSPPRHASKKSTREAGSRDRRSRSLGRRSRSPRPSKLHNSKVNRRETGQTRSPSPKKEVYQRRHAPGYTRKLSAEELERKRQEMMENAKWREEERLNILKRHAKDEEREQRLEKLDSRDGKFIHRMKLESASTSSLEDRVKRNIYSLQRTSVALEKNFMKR
UniProt Q9P0U4, whole entry, looked up: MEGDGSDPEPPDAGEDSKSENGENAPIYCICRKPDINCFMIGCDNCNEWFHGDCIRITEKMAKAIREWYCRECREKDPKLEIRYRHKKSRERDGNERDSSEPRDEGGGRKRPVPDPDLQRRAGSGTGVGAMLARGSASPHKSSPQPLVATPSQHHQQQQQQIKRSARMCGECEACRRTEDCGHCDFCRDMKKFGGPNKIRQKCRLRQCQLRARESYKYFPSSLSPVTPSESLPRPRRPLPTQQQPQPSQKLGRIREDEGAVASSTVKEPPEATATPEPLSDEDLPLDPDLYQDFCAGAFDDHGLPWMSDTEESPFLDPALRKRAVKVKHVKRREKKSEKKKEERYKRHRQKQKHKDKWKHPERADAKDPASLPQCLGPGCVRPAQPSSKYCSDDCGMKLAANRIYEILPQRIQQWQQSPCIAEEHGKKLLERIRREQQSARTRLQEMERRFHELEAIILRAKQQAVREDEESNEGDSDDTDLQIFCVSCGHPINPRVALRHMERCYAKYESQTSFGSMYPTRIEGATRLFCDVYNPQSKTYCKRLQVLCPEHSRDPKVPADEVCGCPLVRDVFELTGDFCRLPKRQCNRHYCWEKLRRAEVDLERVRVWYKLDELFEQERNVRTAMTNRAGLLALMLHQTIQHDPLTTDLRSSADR
UniProt Q96SQ9: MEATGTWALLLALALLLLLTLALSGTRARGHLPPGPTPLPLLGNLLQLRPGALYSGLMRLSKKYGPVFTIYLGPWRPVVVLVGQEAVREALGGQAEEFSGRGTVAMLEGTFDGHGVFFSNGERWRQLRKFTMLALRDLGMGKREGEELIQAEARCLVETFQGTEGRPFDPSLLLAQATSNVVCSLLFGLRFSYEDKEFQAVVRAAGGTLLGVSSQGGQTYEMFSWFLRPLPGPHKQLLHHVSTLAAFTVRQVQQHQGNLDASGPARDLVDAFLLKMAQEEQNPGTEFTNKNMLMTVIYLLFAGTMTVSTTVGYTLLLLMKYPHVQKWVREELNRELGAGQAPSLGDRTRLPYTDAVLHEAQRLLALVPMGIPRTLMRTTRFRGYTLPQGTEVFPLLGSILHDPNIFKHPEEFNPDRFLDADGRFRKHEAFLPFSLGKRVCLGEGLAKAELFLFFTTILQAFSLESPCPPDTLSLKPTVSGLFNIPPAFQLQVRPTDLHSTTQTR
UniProt Q9UJW0, whole entry, looked up: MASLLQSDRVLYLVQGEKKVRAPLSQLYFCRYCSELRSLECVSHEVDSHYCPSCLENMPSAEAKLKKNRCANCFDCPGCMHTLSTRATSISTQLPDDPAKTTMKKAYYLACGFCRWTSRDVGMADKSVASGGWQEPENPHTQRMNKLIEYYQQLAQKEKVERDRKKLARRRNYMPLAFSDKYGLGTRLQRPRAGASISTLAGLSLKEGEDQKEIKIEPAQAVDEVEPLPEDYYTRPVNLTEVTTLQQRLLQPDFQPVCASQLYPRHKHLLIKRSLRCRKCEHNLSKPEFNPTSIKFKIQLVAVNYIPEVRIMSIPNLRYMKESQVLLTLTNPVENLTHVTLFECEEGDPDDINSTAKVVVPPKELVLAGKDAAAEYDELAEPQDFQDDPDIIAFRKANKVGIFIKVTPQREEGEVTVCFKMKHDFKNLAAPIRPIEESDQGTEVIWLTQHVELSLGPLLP

Compound in this test: NC(=O)c1cnc(N[C@@H]2CCCC[C@@H]2N)nc1Nc1cccc(-n2nccn2)c1
In words: log2 fold change, soluble protein after heating vs DMSO (PISA); higher = thermal stabilisation; K562 cells, 10 uM, 30 min; active = over 0.2 and 3.5 SD of the protein, either way, in both replicates (recomputed). The method in brief:
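For each measurement, 10 μM compound was applied for 30 min to K562 cells at 2×10^6 cells/mL. Aliquots were heated for 3 min across 48°C-58°C, pooled, and extracted in PBS with 0.5% NP-40 at 4°C; the supernatant after 21,000xg for 90 min was soluble protein. This was quantified by TMTpro 16plex LC-MS/MS with channel sums equalised, and thermal stability was reported relative to control samples from duplicates, on a log2 fold-change scale.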
Turning to CWC15 (UniProt Q9P013), the log2 fold change was inactive: -0.032.
As for CT45A5 (UniProt P0DMU8), the figure is inactive: 0.034; as for CT45A10 (UniProt P0DMU9), inactive: 0.046; as for DCP1A (UniProt Q9NPI6), inactive: -0.107.
As for CSRP3 (UniProt P50461), the figure is inactive: -0.063; as for DCP2 (UniProt Q8IU60), inactive: 0.009; as for CYP46A1 (UniProt Q9Y6A2), inactive: -0.242.
As for CXorf38 (UniProt Q8TB03), the figure is inactive: -0.024; as for CT55 (UniProt Q8WUE5), inactive: -0.07; as for CTH (UniProt P32929), inactive: 0.025.
Consider CUL1 (UniProt Q13616), for which the log2 fold change was inactive: 0.011.
As for CTDNEP1 (UniProt O95476), the figure is inactive: 0.178.
As for CUTC (UniProt Q9NTM9), the figure is inactive: -0.084; as for CSRP1 (UniProt P21291), inactive: -0.018.
As for CUL2 isoform 2 (UniProt Q13617), the figure is inactive: -0.013.
For DCTN2 isoform 2 (UniProt Q13561), the log2 fold change was inactive: -0.023.
As for DCAF1 (UniProt Q9Y4B6), the figure is inactive: -0.018.
As for DAXX (UniProt Q9UER7), the figure is inactive: -0.103; as for CWC25 (UniProt Q9NXE8), inactive: 0.124.
Turning to CXXC1 isoform 2 (UniProt Q9P0U4), the log2 fold change was inactive: -0.016.
In the case of CYP2S1 isoform 2 (UniProt Q96SQ9), the log2 fold change is inactive: -0.088.
As for CYC1 (UniProt P08574), the figure is inactive: -0.03; as for DCTN4 (UniProt Q9UJW0), inactive: 0.032.

The values are drawn from the supplement of paper PMC10849652.
